Data published in patent US20130336951A1.
These are yes or no findings as the source states them, for the method shown. For some of these results: Binding seen in cells or lysates may run through a third protein. Some results given as binding are weak or reduced against the parent protein; the word gives no strength. Values belong to the substance of their own block, whether it stands above or below them.

By UniProt entry, the sequences of proteins in these tests, tags left out. Where a name states a change or a piece, a line headed by the entry shows the natural chain unless it says otherwise. Chains listed by the source or under a name are the forms on record and can include a tag or linker. Residues count along the entry.
UniProt P04406, residues 2-335: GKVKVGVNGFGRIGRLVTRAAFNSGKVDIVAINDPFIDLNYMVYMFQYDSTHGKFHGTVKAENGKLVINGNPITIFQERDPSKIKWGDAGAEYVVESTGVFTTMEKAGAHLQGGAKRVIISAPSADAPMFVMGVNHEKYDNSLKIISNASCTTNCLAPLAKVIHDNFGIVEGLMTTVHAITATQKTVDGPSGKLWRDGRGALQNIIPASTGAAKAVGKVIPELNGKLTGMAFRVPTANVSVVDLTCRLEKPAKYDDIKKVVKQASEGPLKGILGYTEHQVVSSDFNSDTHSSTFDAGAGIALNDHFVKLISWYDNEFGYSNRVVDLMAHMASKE
UniProt P10361: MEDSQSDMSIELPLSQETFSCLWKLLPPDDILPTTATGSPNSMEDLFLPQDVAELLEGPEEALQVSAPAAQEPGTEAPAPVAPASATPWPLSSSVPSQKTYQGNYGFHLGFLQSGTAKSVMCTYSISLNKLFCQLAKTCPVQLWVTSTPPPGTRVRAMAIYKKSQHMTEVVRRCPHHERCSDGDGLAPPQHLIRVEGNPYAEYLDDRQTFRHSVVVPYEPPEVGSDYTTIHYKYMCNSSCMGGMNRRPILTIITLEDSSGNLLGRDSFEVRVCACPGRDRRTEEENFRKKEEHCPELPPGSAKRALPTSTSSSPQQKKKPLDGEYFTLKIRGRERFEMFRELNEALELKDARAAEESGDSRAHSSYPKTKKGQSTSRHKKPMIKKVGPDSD
UniProt Q9JM53, residues 102-612: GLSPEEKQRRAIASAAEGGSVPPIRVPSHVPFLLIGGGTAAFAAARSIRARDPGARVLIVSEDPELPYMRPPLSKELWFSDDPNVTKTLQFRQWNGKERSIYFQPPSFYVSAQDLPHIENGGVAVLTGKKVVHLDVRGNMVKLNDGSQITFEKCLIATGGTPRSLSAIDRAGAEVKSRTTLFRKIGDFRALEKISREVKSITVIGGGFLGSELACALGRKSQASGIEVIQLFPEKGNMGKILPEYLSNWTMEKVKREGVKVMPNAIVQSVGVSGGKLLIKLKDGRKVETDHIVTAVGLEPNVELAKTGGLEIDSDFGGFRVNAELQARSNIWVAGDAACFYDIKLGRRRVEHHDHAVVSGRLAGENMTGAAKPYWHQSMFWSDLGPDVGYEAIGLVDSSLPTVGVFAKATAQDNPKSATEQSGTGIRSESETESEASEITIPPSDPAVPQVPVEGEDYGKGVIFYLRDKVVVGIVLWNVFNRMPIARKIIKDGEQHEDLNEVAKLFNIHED
UniProt P19491: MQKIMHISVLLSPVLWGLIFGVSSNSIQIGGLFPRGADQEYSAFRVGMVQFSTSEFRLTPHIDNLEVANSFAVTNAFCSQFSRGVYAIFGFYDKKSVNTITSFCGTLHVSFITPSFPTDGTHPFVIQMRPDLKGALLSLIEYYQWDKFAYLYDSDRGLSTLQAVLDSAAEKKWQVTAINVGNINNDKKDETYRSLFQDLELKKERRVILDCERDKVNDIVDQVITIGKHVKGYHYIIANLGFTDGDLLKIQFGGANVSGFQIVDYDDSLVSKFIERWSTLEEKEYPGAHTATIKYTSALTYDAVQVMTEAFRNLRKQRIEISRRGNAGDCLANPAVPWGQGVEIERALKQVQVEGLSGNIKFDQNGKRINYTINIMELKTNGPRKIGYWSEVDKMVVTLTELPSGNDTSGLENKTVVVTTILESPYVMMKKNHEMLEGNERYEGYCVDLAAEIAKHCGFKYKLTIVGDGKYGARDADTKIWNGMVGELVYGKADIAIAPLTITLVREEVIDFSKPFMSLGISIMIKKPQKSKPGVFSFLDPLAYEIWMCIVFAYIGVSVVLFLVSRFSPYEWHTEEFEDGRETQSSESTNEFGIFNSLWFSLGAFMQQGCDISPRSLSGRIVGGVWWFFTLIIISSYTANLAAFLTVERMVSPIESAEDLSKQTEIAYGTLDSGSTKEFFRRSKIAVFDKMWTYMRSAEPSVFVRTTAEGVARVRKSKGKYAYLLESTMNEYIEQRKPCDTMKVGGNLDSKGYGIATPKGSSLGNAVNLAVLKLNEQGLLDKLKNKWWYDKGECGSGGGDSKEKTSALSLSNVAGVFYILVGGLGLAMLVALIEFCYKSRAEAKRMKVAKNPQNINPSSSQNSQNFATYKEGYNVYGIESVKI
GST-GluR2 NTa (V22-S271): residues 22-271 of P19491
GST-GluR2NT1-3 (H122-K172): residues 122-172 of P19491
GST-GluR2 NTa3 (H122-K171): residues 122-171 of P19491
GluR2-M2 171-172 KK->AA (P19491, form named): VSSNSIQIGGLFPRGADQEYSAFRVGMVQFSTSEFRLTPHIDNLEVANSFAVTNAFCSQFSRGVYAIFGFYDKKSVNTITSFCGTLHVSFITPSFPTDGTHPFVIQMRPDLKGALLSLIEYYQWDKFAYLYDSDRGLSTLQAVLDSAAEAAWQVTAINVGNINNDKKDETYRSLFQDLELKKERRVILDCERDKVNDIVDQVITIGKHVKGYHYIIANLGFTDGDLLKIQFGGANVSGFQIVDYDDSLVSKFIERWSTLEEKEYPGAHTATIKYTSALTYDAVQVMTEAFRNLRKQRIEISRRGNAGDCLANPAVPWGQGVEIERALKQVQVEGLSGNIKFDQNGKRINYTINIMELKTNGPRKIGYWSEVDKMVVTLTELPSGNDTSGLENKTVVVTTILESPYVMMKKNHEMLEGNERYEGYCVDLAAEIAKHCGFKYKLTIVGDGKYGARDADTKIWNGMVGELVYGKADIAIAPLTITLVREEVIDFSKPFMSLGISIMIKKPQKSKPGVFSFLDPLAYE
GluR2-M1 94-95 KK->AA (P19491, form named): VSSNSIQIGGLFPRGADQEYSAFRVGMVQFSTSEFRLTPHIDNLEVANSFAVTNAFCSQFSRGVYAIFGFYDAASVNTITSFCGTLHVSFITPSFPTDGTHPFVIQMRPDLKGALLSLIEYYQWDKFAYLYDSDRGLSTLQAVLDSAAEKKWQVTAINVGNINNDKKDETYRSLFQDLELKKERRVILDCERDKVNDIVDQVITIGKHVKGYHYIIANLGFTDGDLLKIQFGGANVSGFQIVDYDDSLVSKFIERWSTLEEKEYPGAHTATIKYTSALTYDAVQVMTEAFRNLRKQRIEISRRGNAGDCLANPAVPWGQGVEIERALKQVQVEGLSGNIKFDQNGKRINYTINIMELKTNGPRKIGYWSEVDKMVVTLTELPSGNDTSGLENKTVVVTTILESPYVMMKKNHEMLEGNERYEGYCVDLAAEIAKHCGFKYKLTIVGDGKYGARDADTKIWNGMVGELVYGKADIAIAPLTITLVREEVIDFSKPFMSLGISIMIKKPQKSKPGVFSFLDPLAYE
GluR2-M3 187-188 KK->AA (P19491, form named): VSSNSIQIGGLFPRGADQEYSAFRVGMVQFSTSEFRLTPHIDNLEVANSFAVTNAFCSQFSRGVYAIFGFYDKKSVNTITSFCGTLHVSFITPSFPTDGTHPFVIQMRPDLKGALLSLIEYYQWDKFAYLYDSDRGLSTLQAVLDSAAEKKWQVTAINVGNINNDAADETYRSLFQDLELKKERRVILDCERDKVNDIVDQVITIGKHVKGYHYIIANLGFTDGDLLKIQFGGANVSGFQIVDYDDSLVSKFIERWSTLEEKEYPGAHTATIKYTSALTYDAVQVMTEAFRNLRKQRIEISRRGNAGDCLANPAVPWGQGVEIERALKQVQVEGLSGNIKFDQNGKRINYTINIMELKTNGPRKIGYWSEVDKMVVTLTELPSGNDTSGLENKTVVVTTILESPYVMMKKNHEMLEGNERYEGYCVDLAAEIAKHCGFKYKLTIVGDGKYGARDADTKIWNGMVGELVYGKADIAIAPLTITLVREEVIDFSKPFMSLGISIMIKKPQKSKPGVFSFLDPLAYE

Tests used:
[1] = biological target: GAPDH endogenous to HEK293T cells (UniProt P04406); assay: immunoprecipitation (FIG. 26E)
[2] = biological target: p53 of HEK-293T cells (UniProt P04637); assay: co-immunoprecipitation from nuclear proteins (FIG. 24B)
[3] = biological target: p53, endogenous protein of rat hippocampus (rat) (UniProt P10361); assay: GST pull-down, Western blot (FIG. 24A)
[4] = biological target: Apoptosis inducing factor (AIF) from rat hippocampal extracts (rat) (UniProt Q9JM53); assay: GST pull-down, Western blot for AIF
[5] = biological target: Apoptosis inducing factor (AIF) from rat hippocampal extracts (rat) (UniProt Q9JM53); assay: GST pull-down from rat hippocampal extracts, Western blot (FIG. 20B)
[6] = biological target: GST-GluR2 NTa (V22-S271) (UniProt P19491); assay: in vitro binding assay (FIG. 6J)
[7] = biological target: GST-GluR2 NT1-3-2 (Y142-K172); assay: in vitro binding assay (FIG. 6C)
[8] = biological target: GST-GluR2 NTa3 (H122-K171) (UniProt P19491); assay: in vitro binding assay (FIG. 5C)
[9] = biological target: GST-GluR2 NT1-3-2 (Y142-K172); assay: in vitro binding assay (FIG. 6L)
[10] = biological target: GST-GluR2 NT1-3-2 (Y142-K172); assay: blot overlay with in vitro translated probe
[11] = biological target: GST-GluR2 NTa3 (H122-K171) (UniProt P19491); assay: blot overlay with in vitro translated probe
[12] = biological target: GST-GluR2 NTa (V22-S271) (UniProt P19491); assay: blot overlay with in vitro translated probe
[13] = biological target: GST-GluR2 NT1-3-2 (Y142-K172); assay: repeated in vitro binding assay
[14] = biological target: GST-GluR2NT1-3 (H122-K172) (UniProt P19491); assay: repeated in vitro binding assay
[15] = biological target: GST-GluR2 NTa (V22-S271) (UniProt P19491); assay: repeated in vitro binding assay
[16] = biological target: GST-GluR2 NTa (V22-S271) (UniProt P19491); assay: in vitro binding assay (FIG. 4C)
[17] = biological target: GST-GluR2NT1-3 (H122-K172) (UniProt P19491); assay: in vitro binding assay (FIG. 6K)
[18] = biological target: GAPDH endogenous to HEK293T cells (UniProt P04406); assay: GST pull-down from HEK-293T nuclear extracts (FIG. 24C)
[19] = biological target: GAPDH endogenous to HEK293T cells (UniProt P04406); assay: co-immunoprecipitation, transfected HEK 293T cells (FIG. 7)
[20] = biological target: GAPDH endogenous to HEK293T cells (UniProt P04406); assay: co-immunoprecipitation, HEK293T cells co-expressing GluR1 and GluR2
[21] = biological target: GAPDH endogenous to HEK293T cells (UniProt P04406); assay: co-immunoprecipitation, transfected HEK293T cells (FIG. 8)
[22] = biological target: GAPDH endogenous to HEK293T cells (UniProt P04406); assay: co-immunoprecipitation, HEK-293T cells (FIG. 21B)
[23] = biological target: GAPDH endogenous to HEK293T cells (UniProt P04406); assay: co-immunoprecipitation, HEK-293T cells expressing GluR1/2 (FIG. 21B)
[24] = biological target: GAPDH endogenous to HEK293T cells (UniProt P04406); assay: co-immunoprecipitation, transfected HEK 293T cells, with glutamate and CNQX (FIG. 8)
[25] = biological target: GAPDH endogenous to HEK293T cells (UniProt P04406); assay: co-immunoprecipitation, transfected HEK 293T cells (FIG. 9)

binding [1]: binds
Substance: GluR2NT wild type (FIG. 26E) (from UniProt P19491 22-545) (receptor)

binding [1]: binds
Substance: GluR2-M2 171-172 KK->AA (from UniProt P19491 22-545) (receptor)

binding [2]: binds
Substance: GAPDH endogenous to HEK293T cells (from UniProt P04406 2-335) (enzyme)

binding [6]: binds
binding [7]: binds
binding [8]: binds
binding [9]: binds
binding [10]: binds
binding [11]: binds
binding [12]: binds
binding [13]: binds
binding [14]: binds
binding [15]: binds
binding [16]: binds
binding [17]: binds
Substance: [35S]-GAPDH probe (in vitro translated, [35S]-methionine labelled GAPDH) (from UniProt P04406 1-335) (enzyme)

binding [18]: binds
Substance: GST-GluR2NT (V22-E545) (from UniProt P19491 22-545)

More lines, now with the values behind:

Substance: GST-GAPDH (from UniProt P04406 1-335)
binding [3]: binds
binding [4]: binds
binding [5]: binds

Substance: GluR2-M1 94-95 KK->AA (from UniProt P19491 22-545) (receptor)
binding [1]: binds

Substance: GluR2-M3 187-188 KK->AA (from UniProt P19491 22-545) (receptor)
binding [1]: binds

Substance: GluR2 subunit expressed in HEK-293T cells together with GluR1 (from UniProt P19491 22-883) (receptor)
binding [19]: binds
binding [20]: binds
binding [21]: binds
binding [22]: binds
binding [23]: binds
binding [24]: binds
binding [25]: binds
